# Library screen at single concentrations

Measurements from “University of Dundee, Small-Polar-MMV Screening Library” (2021), ChEMBL document CHEMBL3988442.

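Phenotypic screen: M. tuberculosis growth, cholesterol and DPPC medium, 4 days; the read-out is not stated. Concentration: 500 µM. The record gives no direction; compounds that gave an IC50 in retests scored well above the rest, so higher reads as more growth inhibition. Size under these conditions: about 18,000 compounds, about 900 of them at 50% or above in at least one test.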

Each number is a percent effect as filed.
The controls that fix the scale are not given in the record; negative values are as filed.
This is an unselected part of the compounds tested.

SMILES,percent effect
COCCN(C(=O)c1cccc(C)c1C)C(C)C(N)=O (stereo not drawn),2.96
Cc1occc1C(=O)N1CCCC(CNS(C)(=O)=O)C1 (stereo not drawn),-1.977
O=C(C1CCS(=O)(=O)C1)N(CC(F)(F)F)C1CCCC1 (stereo not drawn),-20.22
O=C(NCc1[nH]ncc1Br)Nc1nc2c(s1)COCC2,38.44
COc1ccc(C(=O)N2CCCO2)cc1OC,2.806
COc1ccc(NC(=O)NC2CCN(C)CC2)cc1,-7.262
NCc1ccc(CN2CCC(O)C2)cc1 (stereo not drawn),-4.134
COCc1ncc(C)n1C1CCCNC1 (stereo not drawn),0.014
Nc1nc(CCC(=O)NCc2cn3c(n2)SCC3)cs1,-2.931
COc1ccc(F)cc1C(=O)N1CCC(C(C)(C)O)C1 (stereo not drawn),-4.372
O=C(CCc1ccccc1O)NC1CCN(C2CC2)C1 (stereo not drawn),19.14
CC(C)C(=O)NCc1ccccc1CN(C)C,-15.35
CC(=O)Nc1c[nH]c(=O)[nH]c1=O,6.808
OCCCN1CCCc2c(F)cccc21,34.55
Cc1ccc(OCC(=O)Nc2nnn(C)n2)cc1,83.28
NCc1cccc2c1OCCCO2,-2.518
N#Cc1ccc(C(=O)NCCCc2ncc[nH]2)cn1,28.67
COCC(C)(CCO)NCc1cc(C)no1 (stereo not drawn),-6.456
CCc1nccn1CCCNC(=O)CSC,13.06
Fc1cccc2c1CNCCO2,-4.351
NS(=O)(=O)CCNC(=O)CCc1ccc(Br)cc1F,-2.481
CCOc1ccccc1N(C)C(=O)c1cnn(CC)c1,14.9
Cc1nn(-c2ccccc2)cc1CN,13.39
CC(C)[C@H]1CN(S(=O)(=O)c2ccccc2F)C[C@@H]1N,26.97
NCCc1ncccc1F,1.884
CSc1ncc(CN2CCCC(NC(C)=O)C2)cn1 (stereo not drawn),-13.04
Cc1ccc(C(=O)N2CCC(=O)CC2)cc1,11.67
CC(=O)Nc1ccc(-c2ccc(C#N)nc2)cc1,13.48
Cc1ccc2c(OCC(N)=O)cccc2n1,-3.914
CCn1cnnc1SC,-0.711
CCC(Cn1ccnc1)NC(=O)c1cncc(Cl)c1 (stereo not drawn),-2.112
CCS(=O)(=O)N1CCN(c2ccc(C(C)=O)cc2)CC1,-34.21
CN(Cc1ccccc1)C(=O)CNC(=O)c1ccco1,12.05
CN(C)C(=O)C1OCCc2ccccc21 (stereo not drawn),-13.94
CN1CCCCC1CCC(=O)NCCc1ccncc1 (stereo not drawn),5.061
CC[C@@]1(O)CCN(c2ncnc3onc(C)c23)C[C@H]1O,9.536
CCC(=O)N1CCCCC1C(=O)Nc1nccs1 (stereo not drawn),-1.712
CCOC(=O)C(C)(N)C(F)(F)F (stereo not drawn),2.319
CC(CNC(=O)NCc1cc[nH]n1)N1CCOCC1 (stereo not drawn),0.07898
O=C1CC2(CCSC2)C(=O)N1CCc1cccs1 (stereo not drawn),-9.545
CC(C)[C@H](N)C(=O)N1CCC(C2CCOCC2)CC1,-5.527
CN(CC1CCCCO1)C(=O)c1ccn(C)c(=O)c1 (stereo not drawn),1.72
CCOc1ncccc1NC(=O)N1CCNC(=O)C1,0.494
Cc1oc(-c2ccccc2F)nc1C(=O)N(C)C,15.18
Cn1ncc2c(NCCCS(C)(=O)=O)ncnc21,-32.02
CCC(=O)NC1CCN(C(=O)c2ccco2)CC1,6.693
NCCN1C(=O)c2ccccc2C1=O,1.511
CCc1cc(C(=O)NCCc2nnc(C)s2)ccn1,5.829
CC(Nc1cccc(C(N)=O)c1)C(=O)N1CCNC1=O (stereo not drawn),-1.923
NC1CC(=O)N(c2ccccc2F)C1 (stereo not drawn),0.3612
CC1Nc2ncccc2NC1=O (stereo not drawn),-2.11
N#Cc1ccnc(-n2ccnc2)c1,7.655
COc1ccc([S+]([O-])Cc2noc(C)n2)cc1 (stereo not drawn),68.2
COCc1cccc(C(=O)Nc2ccncc2)c1,28.12
c1ncn(CCN2CCOC3(CCCC3)C2)n1,0.378
CN(C)C(CNC(=O)N1CCOCC1)c1ccsc1 (stereo not drawn),29.47
O=C(CSc1ncnn1-c1ccccc1)N1CCCC1,44.33
CCOCC(C)OC(=O)c1ccnn1C (stereo not drawn),-15.07

Repeated from the top, 3 entries:

- COCCN(C(=O)c1cccc(C)c1C)C(C)C(N)=O (stereo not drawn) | 2.96%
- Cc1occc1C(=O)N1CCCC(CNS(C)(=O)=O)C1 (stereo not drawn) | -1.977%
- O=C(C1CCS(=O)(=O)C1)N(CC(F)(F)F)C1CCCC1 (stereo not drawn) | -20.22%